Data: paper PMC9151520 (Archives of Toxicology, 2022)

Assay: in vitro
Conditions: male, Sprague Dawley, rat, microsomes, pH 7.4

SMILES: CCOP(=O)(NC(C)C)Oc1ccc(SC)c(C)c1 (stereo not shown) [Fenamiphos]
- half-life: 2.56 ± 0.11 min
